This note sets out measurements from article PMC7039436.

Results are given in words; binding and its absence hold for the method and conditions named. Some binding calls cover weakened binding; strength is not graded here. Sequences can lack the tags named with a protein.

This experiment addresses T1, FANCC (MBP-FANCC) (UniProt Q00597).
T1 sequence: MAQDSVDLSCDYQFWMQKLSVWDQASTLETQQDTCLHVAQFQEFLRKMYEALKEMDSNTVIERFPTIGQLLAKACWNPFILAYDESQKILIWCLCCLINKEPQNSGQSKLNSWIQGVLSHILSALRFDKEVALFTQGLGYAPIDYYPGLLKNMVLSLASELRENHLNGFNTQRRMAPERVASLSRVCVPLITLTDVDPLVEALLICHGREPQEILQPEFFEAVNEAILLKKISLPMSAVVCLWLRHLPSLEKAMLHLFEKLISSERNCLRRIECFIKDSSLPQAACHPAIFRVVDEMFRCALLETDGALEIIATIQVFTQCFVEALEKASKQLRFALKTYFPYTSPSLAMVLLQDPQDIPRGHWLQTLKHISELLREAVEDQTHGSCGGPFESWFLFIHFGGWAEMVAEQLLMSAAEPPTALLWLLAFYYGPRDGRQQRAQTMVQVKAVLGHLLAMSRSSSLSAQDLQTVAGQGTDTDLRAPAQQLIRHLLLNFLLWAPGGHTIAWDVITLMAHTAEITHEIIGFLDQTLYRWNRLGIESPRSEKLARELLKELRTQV
In words: co-purification; complexes purified as previously described [11]; the procedure is not told here; Coomassie gel of the purified complexes.

B1: FANCE (protein, UniProt Q9HB96 1-536)
chain: MATPDAGLPGAEGVEPAPWAQLEAPARLLLQALQAGPEGARRGLGVLRALGSRGWEPFDWGRLLEALCREEPVVQGPDGRLELKPLLLRLPRICQRNLMSLLMAVRPSLPESGLLSVLQIAQQDLAPDPDAWLRALGELLRRDLGVGTSMEGASPLSERCQRQLQSLCRGLGLGGRRLKSPQAPDPEEEENRDSQQPGKRRKDSEEEAASPEGKRVPKRLRCWEEEEDHEKERPEHKSLESLADGGSASPIKDQPVMAVKTGEDGSNLDDAKGLAESLELPKAIQDQLPRLQQLLKTLEEGLEGLEDAPPVELQLLHECSPSQMDLLCAQLQLPQLSDLGLLRLCTWLLALSPDLSLSNATVLTRSLFLGRILSLTSSASRLLTTALTSFCAKYTYPVCSALLDPVLQAPGTGPAQTELLCCLVKMESLEPDAQVLMLGQILELPWKEETFLVLQSLLERQVEMTPEKFSVLMEKLCKKGLAATTSMAYAKLMLTVMTKYQANITETQRLGLAMALEPNTTFLRKSLKAALKHLGP
As for B1, the binding result is given as “binds”.

B2: FANCF (protein, UniProt Q9NPI8 1-374)
chain: MESLLQHLDRFSELLAVSSTTYVSTWDPATVRRALQWARYLRHIHRRFGRHGPIRTALERRLHNQWRQEGGFGRGPVPGLANFQALGHCDVLLSLRLLENRALGDAARYHLVQQLFPGPGVRDADEETLQESLARLARRRSAVHMLRFNGYRENPNLQEDSLMKTQAELLLERLQEVGKAEAERPARFLSSLWERLPQNNFLKVIAVALLQPPLSRRPQEELEPGIHKSPGEGSQVLVHWLLGNSEVFAAFCRALPAGLLTLVTSRHPALSPVYLGLLTDWGQRLHYDLQKGIWVGTESQDVPWEELHNRFQSLCQAPPPLKDKVLTALETCKAQDGDFEVPGLSIWTDLLLALRSGAFRKRQVLGLSAGLSSV
B2: the binding entry is given as “binds”.
